Test results as given in the supplement of paper PMC7752906.
Structures can show the parent of a compound that is named as a salt. The list shows a part of the results. Repeats in this data set agree poorly, so a single value says little.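 About 40 Schistosoma mansoni schistosomula per well were imaged over time in bright field and compared with 0.1% DMSO wells. A drug counts as a hit if its Mahalanobis distance reaches 2.47 or more, three standard deviations above the DMSO control mean. Degeneracy is the fraction of worms scored opaque.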 Numbered stars: 1 amine (or outer) side, 2 acyl side, 3 side chain; on linkers, the order of the positions; unused ones are H or OH. Bridge positions count the residues as written; N and C are the ends. Square brackets hold non-standard residues; d marks the D form. Peptide text beside a SMILES is read from it. * marks the point of attachment. X1 = NC1=N[C@@H]([C@H](N[*:1])C(=O)[*:2])C[C@H](O)N1; ΔAla(Z-3-ureido) = NC(=O)N/C=C(\N)C(=O)O; β3hOrn = NCCC[C@H](N)CC(=O)*; Dap = NC[C@H](N)C(=O)O

The compounds below were run on Schistosoma mansoni schistosomula (assay: Mahalanobis distance of static-rate-frequency phenotype descriptors from DMSO controls (dimensionless); higher = stronger phenotypic change versus DMSO). Details: 10 µM; 72 h.

Compound | Mahalanobis distance
O=C(c1ccccc1)c1ccc2n1CCC2C(=O)O (stereo not drawn) [Ketorolac Tromethamine] | inactive: 1.23
CCNC(=O)/C=C/c1cccc(Br)c1 [Cinromide] | active: 2.67
Nc1ccn([C@@H]2CS[C@H](CO)O2)c(=O)n1 [Lamivudine] | inactive: 1.68
Cc1cc(N)c2ccccc2[n+]1CCCCCCCCCC[n+]1c(C)cc(N)c2ccccc21 [Dequalinium Chloride] | inactive: 2.39
COc1ccccc1OCC(O)COC(N)=O (stereo not drawn) [Methocarbamol] | inactive: 1.74
NCC[C@H](O)C(=O)N[C@@H]1C[C@H](N)[C@@H](O[C@H]2O[C@H](CN)[C@@H](O)[C@H](O)[C@H]2O)[C@H](O)[C@H]1O[C@H]1O[C@H](CO)[C@@H](O)[C@H](N)[C@H]1O [Amikacin Sulfate] | inactive: 1.95
O=C(O)CSCC(=O)NC1CCSC1=O (stereo not drawn) [Erdosteine] | inactive: 1.39
Clc1ccc(Nc2nnc(Cc3ccncc3)c3ccccc23)cc1 [Vatalanib Dihydrochloride] | active: 5.29
C[N+](C)(C)CCO.[Cl-] [Choline Chloride] | inactive: 2.02
CN1CCC(OC(c2ccccc2)c2ccccc2)CC1 [Diphenylpyraline Hydrochloride] | inactive: 2.27
O=C(Oc1cccc2cccnc12)c1ccccc1 [benzoxiquine] | inactive: 2.44
CCOC(=O)[C@H](CCc1ccccc1)N[C@@H](C)C(=O)N1Cc2cc(OC)c(OC)cc2C[C@H]1C(=O)O [Moexipril Hydrochloride] | inactive: 2.47
NCCC[C@H](N)CC(=O)N[C@H]1CNC(=O)[C@H]([C@H]2C[C@H](O)NC(N)=N2)NC(=O)/C(=C/NC(N)=O)NC(=O)[C@H](CO)NC(=O)[C@H](CO)NC1=O [Viomycin Sulfate] (β3hOrn-[Dap]SS[ΔAla(Z-3-ureido)][X1]; lactam 1-C) | inactive: 1.8
NC(CO)C(=O)NNCc1ccc(O)c(O)c1O (stereo not drawn) [Benserazide] | inactive: 2.01
C[C@H]1COc2c(N3CCN(C)CC3)c(F)cc3c(=O)c(C(=O)O)cn1c23 [Levofloxacin] | inactive: 2.16
Nc1nc(O)c2ncn(CCC(CO)CO)c2n1 [Penciclovir] | inactive: 1.36
Fc1ccc([C@@H]2CCNC[C@H]2COc2ccc3c(c2)OCO3)cc1 [Paroxetine] | inactive: 2.16
O=c1[nH]cnc2c1ncn2[C@H]1CC[C@@H](CO)O1 [Didanosine] | inactive: 1.72
O=C(O)CCCC[C@@H]1SC[C@@H]2NC(=O)N[C@@H]21 [Biotin] | inactive: 2.27
CN1CCN(c2cc3c(cc2F)c(=O)c(C(=O)O)cn3-c2ccc(F)cc2)CC1 [Difloxacin Hydrochloride] | inactive: 1.61
COC(=O)C1=C(C)NC(C)=C(C(=O)OC(C)C)C1c1cccc2nonc12 (stereo not drawn) [Isradipine] | inactive: 2.16
CC(=O)SCC(Cc1ccccc1)C(=O)NCC(=O)OCc1ccccc1 (stereo not drawn) [Racecadotril] | inactive: 1.54

Compound | Mahalanobis distance
OCCN1C[C@H](O)[C@@H](O)[C@H](O)[C@H]1CO [Miglitol] | inactive: 1.88
CC(=O)OCC[N+](C)(C)C [Acetylcholine] | active: 2.63
CC(C)C(=O)Nc1ccc([N+](=O)[O-])c(C(F)(F)F)c1 [Flutamide] | active: 6.72
C[C@H]1O[C@@H](O[C@H]2CC[C@@]3(C)[C@H](CC[C@@H]4[C@@H]3C[C@@H](O)[C@]3(C)[C@@H](C5=CC(=O)OC5)CC[C@]43O)C2)C[C@H](O)[C@@H]1O[C@H]1C[C@H](O)[C@H](O[C@H]2C[C@H](O)[C@H](O[C@@H]3O[C@H](CO)[C@@H](O)[C@H](O)[C@H]3O)[C@@H](C)O2)[C@@H](C)O1 [Deslanoside] | inactive: 1.76
Cn1cnc([N+](=O)[O-])c1Sc1ncnc2[nH]cnc12 [Azathioprine] | inactive: 1.49
CCN(CC)Cc1cc(Nc2ccnc3cc(Cl)ccc23)ccc1O [Amodiaquine Dihydrochloride] | active: 3.15
CCC(=O)OCC(=O)[C@@]1(OC(=O)CC)[C@@H](C)C[C@H]2[C@@H]3CCC4=CC(=O)C=C[C@]4(C)[C@@]3(Cl)[C@@H](O)C[C@@]21C [Beclomethasone Dipropionate] | inactive: 1.59
CC(C)NCC(O)c1cc(O)cc(O)c1 (stereo not drawn) [Metaproterenol] | inactive: 1.7
CNCCCN1c2ccccc2CCc2ccccc21 [Desipramine] | inactive: 2.46
CC[n+]1c(-c2ccccc2)c2cc(N)ccc2c2ccc(N)cc21 [Homidium Bromide] | inactive: 1.96
O=C1OC(CN2CCOCC2)CN1/N=C/c1ccc([N+](=O)[O-])o1 (stereo not drawn) [Furaltadone] | inactive: 1.91
C[C@H]1[C@H](OC(=O)CCC(=O)O)O[C@@H]2O[C@@]3(C)CC[C@H]4[C@H](C)CC[C@@H]1[C@@]24OO3 [Artesunate] | inactive: 1.88
Cc1cccc(Nc2ccccc2C(=O)O)c1C [Mefenamic Acid] | inactive: 1.74
O=C(O)CCNC(=O)c1ccc(/N=N/c2ccc(O)c(C(=O)O)c2)cc1 [Balsalazide] | active: 2.56
CCCCc1nc(Cl)c(CO)n1Cc1ccc(-c2ccccc2-c2nnn[nH]2)cc1 [Losartan, Losartan Potassium] | inactive: 1.87
CC(=O)OCC1=C(C(=O)O)N2C(=O)[C@@H](NC(=O)Cc3cccs3)[C@H]2SC1 [Cephalothin Sodium] | inactive: 1.73
CCOc1ccc(NC(=O)CC(C)O)cc1 (stereo not drawn) [Bucetin] | inactive: 1.32
Clc1ccc(C(Cn2ccnc2)OCc2csc3c(Cl)cccc23)c(Cl)c1 (stereo not drawn) [Sertaconazole Nitrate] | inactive: 1.9
Cc1nc2n(c(=O)c1CCN1CCC(c3noc4cc(F)ccc34)CC1)CCCC2O (stereo not drawn) [Paliperidone] | inactive: 2.12
O=C1CCC(N2C(=O)c3ccccc3C2=O)C(=O)N1 (stereo not drawn) [Thalidomide] | inactive: 2.28
COc1c2ccoc2cc2oc(=O)ccc12 [Bergapten] | active: 3.14

Part of the list above, in markdown.

| Compound | Mahalanobis distance |
| --- | --- |
| Fc1ccc([C@@H]2CCNC[C@H]2COc2ccc3c(c2)OCO3)cc1 [Paroxetine] | inactive: 2.16 |
| O=c1[nH]cnc2c1ncn2[C@H]1CC[C@@H](CO)O1 [Didanosine] | inactive: 1.72 |
